Screening data, single-dose tests

Sequences of proteins named here, by UniProt entry; tags and fusion partners are left off. Residues count along the entry.
UniProt P9WNZ1, whole entry: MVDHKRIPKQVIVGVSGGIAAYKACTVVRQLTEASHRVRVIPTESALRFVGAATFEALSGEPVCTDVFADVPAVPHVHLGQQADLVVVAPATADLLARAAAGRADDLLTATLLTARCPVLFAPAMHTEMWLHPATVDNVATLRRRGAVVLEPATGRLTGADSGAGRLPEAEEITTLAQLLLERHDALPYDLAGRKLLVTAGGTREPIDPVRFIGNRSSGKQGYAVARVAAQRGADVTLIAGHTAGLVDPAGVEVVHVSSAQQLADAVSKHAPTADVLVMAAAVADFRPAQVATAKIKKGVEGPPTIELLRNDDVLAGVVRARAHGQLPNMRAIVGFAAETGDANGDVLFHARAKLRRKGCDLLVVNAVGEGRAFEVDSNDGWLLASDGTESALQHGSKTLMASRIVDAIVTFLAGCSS
UniProt I6X8D2, whole entry: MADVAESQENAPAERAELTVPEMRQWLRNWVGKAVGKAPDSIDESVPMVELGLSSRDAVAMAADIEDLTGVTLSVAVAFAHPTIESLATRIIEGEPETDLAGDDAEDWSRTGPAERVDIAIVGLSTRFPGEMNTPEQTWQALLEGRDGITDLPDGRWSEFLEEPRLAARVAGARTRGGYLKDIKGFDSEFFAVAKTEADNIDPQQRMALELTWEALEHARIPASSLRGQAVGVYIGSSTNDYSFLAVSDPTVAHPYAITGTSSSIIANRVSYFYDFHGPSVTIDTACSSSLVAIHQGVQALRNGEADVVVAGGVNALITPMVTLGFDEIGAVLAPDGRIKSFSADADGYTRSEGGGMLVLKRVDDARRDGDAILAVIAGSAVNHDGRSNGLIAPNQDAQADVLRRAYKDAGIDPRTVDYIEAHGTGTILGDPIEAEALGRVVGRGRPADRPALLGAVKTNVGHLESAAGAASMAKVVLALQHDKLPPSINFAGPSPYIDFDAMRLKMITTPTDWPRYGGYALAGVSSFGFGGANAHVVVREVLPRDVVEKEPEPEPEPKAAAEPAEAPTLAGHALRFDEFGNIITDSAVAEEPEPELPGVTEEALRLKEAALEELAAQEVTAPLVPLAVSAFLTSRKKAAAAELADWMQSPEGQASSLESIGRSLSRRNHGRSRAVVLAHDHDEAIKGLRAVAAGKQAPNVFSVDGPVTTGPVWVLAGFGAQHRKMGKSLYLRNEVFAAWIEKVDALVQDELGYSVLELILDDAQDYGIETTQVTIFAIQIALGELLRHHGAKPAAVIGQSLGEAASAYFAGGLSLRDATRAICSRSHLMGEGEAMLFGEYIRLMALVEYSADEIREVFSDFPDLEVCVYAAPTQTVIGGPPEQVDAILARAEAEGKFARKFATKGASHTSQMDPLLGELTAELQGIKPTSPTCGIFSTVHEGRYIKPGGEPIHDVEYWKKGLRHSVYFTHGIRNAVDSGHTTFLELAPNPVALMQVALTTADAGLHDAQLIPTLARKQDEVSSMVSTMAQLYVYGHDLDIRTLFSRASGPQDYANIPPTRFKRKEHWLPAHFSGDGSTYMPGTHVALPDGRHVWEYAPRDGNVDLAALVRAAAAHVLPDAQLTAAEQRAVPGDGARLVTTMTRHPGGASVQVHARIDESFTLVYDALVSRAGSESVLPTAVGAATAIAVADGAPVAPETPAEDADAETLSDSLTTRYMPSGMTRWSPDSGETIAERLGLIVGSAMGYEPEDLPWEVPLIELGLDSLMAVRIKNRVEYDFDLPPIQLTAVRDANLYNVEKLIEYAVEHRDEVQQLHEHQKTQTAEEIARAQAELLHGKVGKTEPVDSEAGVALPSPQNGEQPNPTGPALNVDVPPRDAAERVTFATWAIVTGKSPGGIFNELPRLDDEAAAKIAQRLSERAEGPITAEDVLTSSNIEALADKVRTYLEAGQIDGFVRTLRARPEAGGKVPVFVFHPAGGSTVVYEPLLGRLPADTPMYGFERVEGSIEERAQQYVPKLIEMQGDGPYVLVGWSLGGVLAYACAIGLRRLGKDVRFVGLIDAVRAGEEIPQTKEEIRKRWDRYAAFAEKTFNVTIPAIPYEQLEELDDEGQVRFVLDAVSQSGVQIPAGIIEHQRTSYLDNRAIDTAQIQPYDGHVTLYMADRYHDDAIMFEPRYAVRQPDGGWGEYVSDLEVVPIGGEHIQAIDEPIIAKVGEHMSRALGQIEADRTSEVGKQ
UniProt P9WPC5, whole entry: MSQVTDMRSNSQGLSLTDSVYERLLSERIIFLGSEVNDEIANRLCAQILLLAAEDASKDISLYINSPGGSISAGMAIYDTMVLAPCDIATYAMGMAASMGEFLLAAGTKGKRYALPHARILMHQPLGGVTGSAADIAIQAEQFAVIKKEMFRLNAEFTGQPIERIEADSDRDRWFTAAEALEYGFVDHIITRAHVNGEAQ
UniProt P9WPC3, whole entry partner: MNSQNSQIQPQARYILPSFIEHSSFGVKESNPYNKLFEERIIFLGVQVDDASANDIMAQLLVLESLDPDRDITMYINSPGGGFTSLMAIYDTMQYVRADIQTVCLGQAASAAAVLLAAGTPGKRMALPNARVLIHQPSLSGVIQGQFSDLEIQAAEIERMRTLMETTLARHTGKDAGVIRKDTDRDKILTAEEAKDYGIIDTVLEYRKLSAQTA
UniProt A4I591, 1-473: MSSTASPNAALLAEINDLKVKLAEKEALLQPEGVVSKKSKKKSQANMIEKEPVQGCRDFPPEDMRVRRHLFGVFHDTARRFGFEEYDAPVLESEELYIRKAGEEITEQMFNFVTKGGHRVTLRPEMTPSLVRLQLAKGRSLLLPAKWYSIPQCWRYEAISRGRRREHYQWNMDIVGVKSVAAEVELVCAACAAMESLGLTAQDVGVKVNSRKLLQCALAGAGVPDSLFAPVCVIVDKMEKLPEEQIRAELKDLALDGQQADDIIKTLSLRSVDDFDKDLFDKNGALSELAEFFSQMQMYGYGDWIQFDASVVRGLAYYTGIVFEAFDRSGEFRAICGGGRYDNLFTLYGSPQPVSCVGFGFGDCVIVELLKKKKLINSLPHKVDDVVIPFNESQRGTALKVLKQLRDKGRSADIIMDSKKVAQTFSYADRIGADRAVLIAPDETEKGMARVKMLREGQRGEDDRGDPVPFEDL
UniProt P9WFT3, whole entry: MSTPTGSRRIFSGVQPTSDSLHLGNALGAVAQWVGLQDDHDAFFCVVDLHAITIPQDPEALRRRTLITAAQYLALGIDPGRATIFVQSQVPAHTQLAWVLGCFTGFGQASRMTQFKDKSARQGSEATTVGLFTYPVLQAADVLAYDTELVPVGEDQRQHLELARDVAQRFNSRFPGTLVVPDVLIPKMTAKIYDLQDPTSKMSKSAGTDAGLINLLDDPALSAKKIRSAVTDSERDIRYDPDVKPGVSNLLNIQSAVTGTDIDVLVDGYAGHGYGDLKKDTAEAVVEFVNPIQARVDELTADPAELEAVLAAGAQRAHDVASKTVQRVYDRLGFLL

Measurements from “University of Dundee, Small-Polar-MMV Screening Library” (2021), ChEMBL document CHEMBL3988442.

A: 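Coenzyme A biosynthesis protein CoaBC, Mycobacterium tuberculosis (UniProt P9WNZ1). Enzyme assay of CoaBC with a phosphate dye (Biomol Green) read at 650 nm. Tested at 30 µM. Direction is inferred from only a few compounds that gave an IC50; most scored high, so higher reads as stronger inhibition. Most strong results did not repeat in a second test. About 67,000 compounds were tested under these conditions; 0.06% (about 40) showed 50% or more at least once.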
B: 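Polyketide synthase Pks13, Mycobacterium tuberculosis (UniProt I6X8D2). Enzyme assay of the thioesterase domain of polyketide synthase 13; the read-out is not stated. Concentration: 30 µM. Higher reads as stronger inhibition (inferred from which compounds were picked for retests). Of about 67,000 compounds tested this way, about 300 (0.46%) reached 50% or more in at least one test.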
C: 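ClpP1P2, Mycobacterium tuberculosis (UniProt P9WPC5 and UniProt P9WPC3). Protease assay of ClpP1P2, read by the AMC dye that it sets free. Tested at 50 µM. Higher reads as stronger inhibition, judged from the few compounds that gave an IC50. Most other retested compounds had strongly negative values. About 69,000 compounds were tested under these conditions; 0.015% (about 10) showed 50% or more at least once.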
D: 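Assay of Toxoplasma gondii numbers, read through their beta-galactosidase reporter with a colour substrate. Tested at 10 µM. The record gives no direction; the compounds picked for IC50 retests had high values, so higher reads as fewer parasites. About 67,000 compounds were tested under these conditions; 0.38% (about 260) showed 50% or more at least once.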
E: 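Enzyme assay of histidyl-tRNA synthetase; the read-out is not stated. Target: Histidine-tRNA ligase, Leishmania infantum (UniProt A4I591). Concentration: 30 µM. Higher reads as stronger inhibition (inferred: compounds with an IC50 in retests scored well above the rest). The assay is labelled LdHisRS but filed under L. infantum. About 69,000 compounds were tested under these conditions; 0.6% (about 410) showed 50% or more at least once.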
F: 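Enzyme assay of tryptophanyl-tRNA synthetase; the read-out is not stated. Target: Tryptophan-tRNA ligase, Mycobacterium tuberculosis (UniProt P9WFT3). Tested at 10 µM. Higher most likely means stronger inhibition; the record gives no direction and few retests gave an IC50. Size under these conditions: about 65,000 compounds, about 64 of them at 50% or above in at least one test.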

Values are the deposited “Percent Effect”, in %.
The controls that fix the scale are not given in the record; negative values are as filed.
Compounds were drawn at random from those tested, without regard to their results.

COCCC(=O)N1CCCC2(CCCN2Cc2ccccc2F)C1 (configuration not stated) gave A: 5.506%; B: -1.881%; C: -11.67%; E: 7.407%; F: -0.2571%. CC1(C(=O)N2CCOCC2)CN(C2CCCCC2)CCO1 (configuration not stated) gave A: 1.36%; B: 0.09774%; C: 1.652%; D: 11.13%; E: 13.1%; F: 0.3137%. O=C(NCc1nncn1C1CC1)c1ccccc1Oc1cccnc1 gave A: 2.166%; B: -41.31%; C: 3.168%; D: 5.278%; E: -1.036%; F: -4.397%. With Cc1cc(CN2CCC(CNC(=O)C3(c4ccccc4)CC3)C2)[nH]n1 (configuration not stated) the screen gave A: 4.206%; B: -20.29%; C: -2.946%; D: -0.9202%; E: 25%; F: 0.5947%. Cc1ccoc1C(=O)N1C[C@@H](OCC2CCOCC2)[C@H]2OCCC[C@H]21 gave A: 9.979%; B: -3.864%; C: -0.4686%; E: 13.27%; F: -4.606%. O=C(c1cnc(NCC2CCCO2)c(Cl)c1)N1CCCCC1 (configuration not stated) read A: 2.2%; B: -5.199%; C: 0.7005%; D: -9.783%; E: 0%; F: -4.15%. Result for CC(c1nc(C2CC2)no1)N(C)Cc1ccc(Cl)cc1 (configuration not stated) was A: 5.95%; B: -6.817%; C: -2.044%; D: -6.019%; E: 4.225%; F: 2.457%. Result for CC(C)NC(=O)CCN1CCC(C(=O)c2cc(F)ccc2F)CC1 was A: 9.024%; B: -21.15%; C: -14.05%; D: 21.55%; E: 14.4%; F: -4.063%.

Cn1cc(C2=CCN(CCCC(=O)Nc3ccc(C#N)cc3)CC2)cn1 read A: 4.654%; B: -2.138%; C: -16.41%; D: -27.32%; E: 12.39%; F: 0.6803%. Result for Cc1ccccc1CC1(CO)CCCN(c2ncccc2C#N)C1 (configuration not stated) was A: -2.345%; B: 28.99%; C: -49.08%; D: -2.654%; E: 11.54%; F: 0.8514%. With CCc1c(C(=O)NCC2CCS(=O)(=O)C2)cnn1-c1ccccc1 (configuration not stated) the screen gave A: 7.955%; B: 1.442%; C: -28.1%; D: -25.71%; E: 3.571%; F: 23.88%. For Cc1cc(NC(=O)CN2CCCC2c2noc(C3CC3)n2)on1 (configuration not stated) the result was A: 1.956%; B: -13.19%; C: -15.23%; D: 7.287%; E: 11.29%; F: -4.464%. Result for O=C(c1cscn1)N1C[C@H](OCc2cccnc2)[C@H]2COC[C@H]21 was A: 1.728%; B: -19.07%; C: -9.884%; E: 9.722%; F: -6.443%. CCCN1CCCC2(CCN(S(=O)(=O)c3cccnc3)C2)C1=O (configuration not stated) read A: 4.119%; B: -23.63%; C: -3.929%; D: 3.692%; E: 18.31%; F: -0.6552%. For Cc1nccn1Cc1nnc(C2CCCN(Cc3cccnc3)C2)n1C (configuration not stated) the result was A: -3.947%; B: -8.848%; C: 0.6553%; D: -7.414%; E: 20.95%; F: 2.089%. For Cc1csc(C2CCCCN2C(=O)c2cc(C)n(C)n2)n1 (configuration not stated) the result was A: 6.691%; B: -25.88%; C: -10.09%; D: 4.642%; E: 9.615%; F: 26.11%.

For CC(C)(C)c1cnc(CN2CCC(CO)CC2)o1 the result was A: 6.226%; C: 2.233%; D: -2.273%; E: -8.108%; F: -0.5698%. CN(Cc1ccccc1)CC(O)Cn1cnc2ccc(Br)cc2c1=O (configuration not stated) read A: 1.316%; B: -12.11%; C: -41.1%; D: 18.39%; E: 10.19%; F: 4.412%. For CN(C)CC(=O)N1C[C@H]2CCC[C@@]2(COc2ccccn2)C1 the result was A: 1.158%; B: -7.064%; C: -1.304%; E: 7.843%; F: -2.397%. c1ccc(NCc2cn3c(n2)CN(Cc2nccs2)CC3)nc1 gave A: -1.935%; B: -28.48%; C: -25.71%; D: 2.956%; E: 33.33%; F: -1.766%. For Nc1nnc(SCc2cc(=O)n3c4c(sc3n2)CCCC4)s1 the result was A: 6.659%; B: 42.87%; C: -0.272%; D: 10.78%; E: 29.35%; F: -2.177%. COc1cccc(CNCc2cccnc2-n2cccn2)c1OC read A: 0.2296%; B: -29.73%; C: 19.9%; D: 26.68%; E: 16.33%; F: 14.04%.